These are yes or no findings as the source states them, for the method shown. For some assays here: In cells and extracts the contact can be indirect. Some entries that bind do so weakly or less than the wild type. Sequences can lack the tags named with a protein.

Experiment [1] has as its target T1, SEPT9_i1-β10 and SEPT9_i1-β11 (wild-type SEPT9 isoform 1 fused to GFP strand β10 or β11) (human), Q9UHD8.
T1 chain: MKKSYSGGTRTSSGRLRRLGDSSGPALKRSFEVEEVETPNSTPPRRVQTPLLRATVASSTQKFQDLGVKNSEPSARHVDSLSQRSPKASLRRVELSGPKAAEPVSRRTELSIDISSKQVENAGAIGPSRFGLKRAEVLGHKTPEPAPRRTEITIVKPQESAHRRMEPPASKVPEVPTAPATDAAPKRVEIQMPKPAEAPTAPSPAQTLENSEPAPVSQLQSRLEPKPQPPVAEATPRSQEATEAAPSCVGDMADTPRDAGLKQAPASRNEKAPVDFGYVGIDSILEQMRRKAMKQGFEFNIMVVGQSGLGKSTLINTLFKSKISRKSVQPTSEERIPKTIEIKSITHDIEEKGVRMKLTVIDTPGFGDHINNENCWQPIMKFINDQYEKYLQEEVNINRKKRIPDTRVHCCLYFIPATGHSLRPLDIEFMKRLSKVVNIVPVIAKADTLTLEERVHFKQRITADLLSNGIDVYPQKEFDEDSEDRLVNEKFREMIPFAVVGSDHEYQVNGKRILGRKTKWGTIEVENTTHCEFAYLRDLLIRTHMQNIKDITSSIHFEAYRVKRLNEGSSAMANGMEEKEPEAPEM
Briefly: split reporter. The note with it: remark: other sources report otherwise.

Experiment [2] deals with T2, recombinant human septin hexamers with SEPT2NCmut-msfGFP (SEPT2 F20D, V27D) (human), Q15019.
T2 chain 1: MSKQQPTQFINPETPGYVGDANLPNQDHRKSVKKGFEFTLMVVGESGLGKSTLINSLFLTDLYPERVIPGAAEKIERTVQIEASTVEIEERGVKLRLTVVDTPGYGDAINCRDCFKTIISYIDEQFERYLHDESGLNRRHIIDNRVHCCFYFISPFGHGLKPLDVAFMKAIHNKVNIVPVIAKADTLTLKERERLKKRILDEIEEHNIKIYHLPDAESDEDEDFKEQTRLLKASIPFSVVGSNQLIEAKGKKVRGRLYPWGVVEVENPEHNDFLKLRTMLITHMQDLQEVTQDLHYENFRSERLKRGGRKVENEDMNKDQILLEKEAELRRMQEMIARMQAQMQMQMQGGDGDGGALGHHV
T2 chain 2: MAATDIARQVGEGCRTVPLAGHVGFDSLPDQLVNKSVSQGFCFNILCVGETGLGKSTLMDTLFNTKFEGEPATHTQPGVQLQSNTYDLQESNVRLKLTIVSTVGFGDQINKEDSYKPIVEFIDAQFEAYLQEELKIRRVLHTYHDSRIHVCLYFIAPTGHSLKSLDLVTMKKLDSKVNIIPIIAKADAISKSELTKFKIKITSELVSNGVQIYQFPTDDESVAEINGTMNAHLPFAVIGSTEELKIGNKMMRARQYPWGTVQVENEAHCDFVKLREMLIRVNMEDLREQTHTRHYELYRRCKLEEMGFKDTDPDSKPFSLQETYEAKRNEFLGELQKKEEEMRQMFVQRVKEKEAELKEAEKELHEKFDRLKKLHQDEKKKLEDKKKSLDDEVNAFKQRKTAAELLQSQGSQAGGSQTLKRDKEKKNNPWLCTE
T2 chain 3: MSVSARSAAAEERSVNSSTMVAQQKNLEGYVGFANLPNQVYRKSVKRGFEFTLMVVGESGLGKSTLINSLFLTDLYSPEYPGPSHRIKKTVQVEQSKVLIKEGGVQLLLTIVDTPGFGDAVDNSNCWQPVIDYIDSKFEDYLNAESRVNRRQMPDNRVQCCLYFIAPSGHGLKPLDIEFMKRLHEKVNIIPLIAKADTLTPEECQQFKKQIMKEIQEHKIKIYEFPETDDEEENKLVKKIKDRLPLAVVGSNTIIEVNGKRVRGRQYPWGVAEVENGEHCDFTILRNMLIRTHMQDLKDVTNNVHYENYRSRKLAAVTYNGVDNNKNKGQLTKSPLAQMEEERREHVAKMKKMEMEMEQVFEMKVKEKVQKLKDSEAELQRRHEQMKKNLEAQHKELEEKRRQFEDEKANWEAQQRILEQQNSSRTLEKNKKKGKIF
Briefly: fluorescence microscopy of reconstituted septin filaments. Conditions: remark: other sources report otherwise.

B1: SEPT9_i1-β10 and SEPT9_i1-β11 (wild-type SEPT9 isoform 1 fused to GFP strand β10 or β11), Q9UHD8-1 1-586 (protein)
chain: MKKSYSGGTRTSSGRLRRLGDSSGPALKRSFEVEEVETPNSTPPRRVQTPLLRATVASSTQKFQDLGVKNSEPSARHVDSLSQRSPKASLRRVELSGPKAAEPVSRRTELSIDISSKQVENAGAIGPSRFGLKRAEVLGHKTPEPAPRRTEITIVKPQESAHRRMEPPASKVPEVPTAPATDAAPKRVEIQMPKPAEAPTAPSPAQTLENSEPAPVSQLQSRLEPKPQPPVAEATPRSQEATEAAPSCVGDMADTPRDAGLKQAPASRNEKAPVDFGYVGIDSILEQMRRKAMKQGFEFNIMVVGQSGLGKSTLINTLFKSKISRKSVQPTSEERIPKTIEIKSITHDIEEKGVRMKLTVIDTPGFGDHINNENCWQPIMKFINDQYEKYLQEEVNINRKKRIPDTRVHCCLYFIPATGHSLRPLDIEFMKRLSKVVNIVPVIAKADTLTLEERVHFKQRITADLLSNGIDVYPQKEFDEDSEDRLVNEKFREMIPFAVVGSDHEYQVNGKRILGRKTKWGTIEVENTTHCEFAYLRDLLIRTHMQNIKDITSSIHFEAYRVKRLNEGSSAMANGMEEKEPEAPEM
In the case of B1, the binding result in experiment [1] is given as “binds”.

B2: recombinant human septin hexamers with SEPT2NCmut-msfGFP (SEPT2 F20D, V27D), Q15019;Q14141;Q16181 (complex)
chain 1: MSKQQPTQFINPETPGYVGDANLPNQDHRKSVKKGFEFTLMVVGESGLGKSTLINSLFLTDLYPERVIPGAAEKIERTVQIEASTVEIEERGVKLRLTVVDTPGYGDAINCRDCFKTIISYIDEQFERYLHDESGLNRRHIIDNRVHCCFYFISPFGHGLKPLDVAFMKAIHNKVNIVPVIAKADTLTLKERERLKKRILDEIEEHNIKIYHLPDAESDEDEDFKEQTRLLKASIPFSVVGSNQLIEAKGKKVRGRLYPWGVVEVENPEHNDFLKLRTMLITHMQDLQEVTQDLHYENFRSERLKRGGRKVENEDMNKDQILLEKEAELRRMQEMIARMQAQMQMQMQGGDGDGGALGHHV
chain 2: MAATDIARQVGEGCRTVPLAGHVGFDSLPDQLVNKSVSQGFCFNILCVGETGLGKSTLMDTLFNTKFEGEPATHTQPGVQLQSNTYDLQESNVRLKLTIVSTVGFGDQINKEDSYKPIVEFIDAQFEAYLQEELKIRRVLHTYHDSRIHVCLYFIAPTGHSLKSLDLVTMKKLDSKVNIIPIIAKADAISKSELTKFKIKITSELVSNGVQIYQFPTDDESVAEINGTMNAHLPFAVIGSTEELKIGNKMMRARQYPWGTVQVENEAHCDFVKLREMLIRVNMEDLREQTHTRHYELYRRCKLEEMGFKDTDPDSKPFSLQETYEAKRNEFLGELQKKEEEMRQMFVQRVKEKEAELKEAEKELHEKFDRLKKLHQDEKKKLEDKKKSLDDEVNAFKQRKTAAELLQSQGSQAGGSQTLKRDKEKKNNPWLCTE
chain 3: MSVSARSAAAEERSVNSSTMVAQQKNLEGYVGFANLPNQVYRKSVKRGFEFTLMVVGESGLGKSTLINSLFLTDLYSPEYPGPSHRIKKTVQVEQSKVLIKEGGVQLLLTIVDTPGFGDAVDNSNCWQPVIDYIDSKFEDYLNAESRVNRRQMPDNRVQCCLYFIAPSGHGLKPLDIEFMKRLHEKVNIIPLIAKADTLTPEECQQFKKQIMKEIQEHKIKIYEFPETDDEEENKLVKKIKDRLPLAVVGSNTIIEVNGKRVRGRQYPWGVAEVENGEHCDFTILRNMLIRTHMQDLKDVTNNVHYENYRSRKLAAVTYNGVDNNKNKGQLTKSPLAQMEEERREHVAKMKKMEMEMEQVFEMKVKEKVQKLKDSEAELQRRHEQMKKNLEAQHKELEEKRRQFEDEKANWEAQQRILEQQNSSRTLEKNKKKGKIF
With B2, in experiment [2], the binding result is listed as “no binding”.

These data come from doi:10.1101/2022.02.23.481653.
